This sample is rich in variants without activity.

From the RNAGym collection of RNA variant scans (doi:10.1126/science.aae0568) come the findings set out here.

Sequences and labels used below:
B1: tRNA (parent)
chain: GUUCCGUUGGCGUAAUGGUAACGCGUCUCCCUCCUAAGGAGAAGACUGCGGGUUCGAGUCCCGUACGGAACG

In the series the parent is B1. Put plainly: yeast fitness relative to wild type (ratio to wild type); higher = fitter; tRNA-Arg(CCU), competitive growth, 37 C, YPD. The method in brief: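 Amplicons of the tRNA-Arg(CCU) gene were sequenced, 100-nucleotide paired-end, from the start population and from each end population of a pooled yeast competition. The competition, in six parallel replicates, lasted 24 hours in YPD at 37°C. Fitness relative to wild type was calculated from changes in genotype frequencies. Genotypes had to have ≥ 100 starting reads, and estimates < 0.5 were set to 0.5.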
As to GAUCCGUUGGCGUCAUGGUAACGCGUCUCUCUCGUAAGGAGAAGACUGCGGGUUCGAGUCCCAUACGGAACG [U2A A14C C30U C34G G63A], the yeast fitness is 0.574.
As for GUGCCGUUGGCGUAAUGAUAACGCGUCUCCCUCCUAAGGAGAAGACUGCGGGUUCGAGUCCCGUACGCAACG [U3G G18A G68C], the figure is no more than 0.5.
For GUUCCGUUGGCGUAAUGGUAACGCGCCUCCUUCCCAAGGAGAAGACUGCGGGUUCGGGUCCCGUACGGAACG [U26C C31U U35C A57G] the value was no more than 0.5; for GUUCCGUUGGCGUGAUGGUAACGCGUCUCCCUCCUAAGGAGAAGACUGGGGGUUCGAGUCCCGUACGGUACG [A14G C49G A69U], 0.566.
For the variant GGUCCGUUGGCGUAAUGGUUACGCGUCUACCUCCUAAGAAGAAGCCUGCGGGUUCGAGUCCCGUACGGAUCG [U2G A20U C29A G39A A45C A70U], the yeast fitness is no more than 0.5.
Consider GUUCCGUUGGCGUAAUGGUAACGCGUCUCCCUCGUAAGGAGAAGACUGCGGGUUUGAGUCCCGUACGGAACG [C34G C55U], for which the yeast fitness was no more than 0.5.
In the case of GUUCCGUUGGCGUAAUGGUUACGCGACUCCCUCCUAAGGAGAAGACUGCGGGUUCGAGUCCUGUACGGAACG [A20U U26A C62U], the yeast fitness was 0.542.
For GUUCCGUUGGCGCAAUGGUAACGCCUCUCGCUCCUAAGGAGAAGACUGCGGGUUCGAGUCCCGUACGGACCG [U13C G25C C30G A70C] the value was no more than 0.5.
For GUUCAGAUGGCGUAAUGGUAUCGCGUCUCCCUCCUAAGGAGAAGACUGCGGGUUCGAGUCCCGUACGGAACG [C5A U7A A21U] the value was no more than 0.5; for GUUCCAUUGGCGUAAUGGUAACGCGUCUCUCUCCUAAGGAGAAGUCUGCGGGUUCGCGUCCCGUACGGAACG [G6A C30U A45U A57C], no more than 0.5.
For GUUCCGUCGGCGUAACGGUAACGCGUCUUCCUCCUAACGCGAAGACUGCGGGUUCGAGUCCCGUACGGAACG [U8C U16C C29U G38C A40C] the value was no more than 0.5.
Consider GUUCUGUUGGCGUAAUGGUAACGCGUGUCCCUCCUAAGGAGAAGACUGCGGGUUCGAGUCCAGUCCGGAACG [C5U C27G C62A A65C], for which the yeast fitness was no more than 0.5.
For GUCCCGUUGGUGUAACGGUAACGCGUCUCGGUCCUAUGGAGAAGACUGCGGGUUCGAGUCCCGUACGGAACG [U3C C11U U16C C30G C31G A37U] the value was no more than 0.5.
For GUUCCGUUGGCGUAAUGGUAACGCGUCUCCCUCCUAAGGAGAGGACUGCGGGUUCGGGUCCCGUACGGAACG [A43G A57G] the value was 0.924; for GUUCCGUUGGCGUAAUGGUAACGCGUCUCCCACGUAAGGAGAAGACUGCGGGUUGGAGCUCCGUACUGAACG [U32A C34G C55G U59C C60U G67U], no more than 0.5.
GUUCCGUUGGCGUAUUGGUAAGGCGUCUCCCUCCUAAGGAGAAGACUGCGGGUUCGACUCCCGUACGAAACG [A15U C22G G58C G68A]: the yeast fitness was no more than 0.5.
Consider GUUCCGUAGGCGUAAUGGUAACGCGUCUCACCCCUAAGGAGAAGACUGCGGGUUCGAGUCCCGUACGGAACG [U8A C30A U32C], for which the yeast fitness was no more than 0.5.
For GUUCCGUUGGCGUAAUGGUAACGCGUCUCCCUCCUAAGGAGAAGACUGUGGGUUCAAGUCCCGUACAGAACG [C49U G56A G67A] the value was 0.593; for GUUCCGUUGGCGUAAUGGUACCGCGUUUCCCUACUACGGAGAAGACUGCGGGUUCGAGUCCCGUACGGAACG [A21C C27U C33A A37C], 0.554; for GUUCCGUUGGCGUAAUGGUAACGCGUUUCCCUCCUGAGGGGAAGACUGCGGGUUCGAGUCCCGUACGGAACG [C27U A36G A40G], no more than 0.5.
For GUUCCGUUGGCGUAAUGGUAACGCGUCUCCCUCCUAAAGAGGAGACUGCGGGUUCGAGUCCCGUAAGGAACG [G38A A42G C66A] the value was no more than 0.5.
As for GUUCCGUUGGCGUAAUGGUAUCGCGUCUCCAUCCUAAGCAGAAGACUGUGGGUUCGAGUCCGGUACGAAACG [A21U C31A G39C C49U C62G G68A], the figure is no more than 0.5; as for GUUCCGUUGGCGUAAUAGUGACGCGUCUCCCUCCUAAGGAGAAGACUGCGGGAUCGAGUCCCGUACGGAACG [G17A A20G U53A], no more than 0.5; as for GUUCCGUUGGCGAAAUGGUAACGCGUCUCCCUCCUAAGGGGAAGACGGCGGGUUCGAGUCCCGUACGGAACG [U13A A40G U47G], no more than 0.5.
As for GUUCGGUUGGCGUAAUGGUAAUGCGUCUCCGUCCUAAGGAGAAGACUGCGGGUUCGAGUACCGUACGGAACG [C5G C22U C31G C60A], the yeast fitness is no more than 0.5.
Consider GUUCCGUUGGCGUAAUGGUAACGCGUCUCCCUCCUAAGGAGAGGACCGCGGGUUCGAGUCCCGUUCGGAACG [A43G U47C A65U], for which the yeast fitness is 0.668.
Consider GUUCCGAUGGCGUAAUGGUAACGCGUCUCCCUUCUAAGGAGAAGACUGUGGGUUCGAGUCCCGUACGGAACG [U7A C33U C49U], for which the yeast fitness is no more than 0.5.
For the variant GUUCCGUUGGCGUAAUGGUAACGCGUCUCCCUCCUAAGGAGAACACUGCGGGUUCGCGUCCCGUACGCAACG [G44C A57C G68C], the yeast fitness is no more than 0.5.
For GUUCCGUUGGCGUAAUGGUAACGCGUCCCCCUCCUAAGGAGAACACUGCGGGUUCCAGUCCCGUACGGAUCG [U28C G44C G56C A70U] the value was no more than 0.5.
As for GUUCCGUUGGCGUAAUGAUAACGCCUCUCGCUCCUAAGGAUAAGACUGCGGGUUGGAGUCCCGUACGGAACG [G18A G25C C30G G41U C55G], the figure is no more than 0.5; as for GUUCCGUCGGCGUAAUGGUAACGCGUUUCCCUCGUAAGGAGAAGACUGCGGGUUCGAGUCCCGUACGGCACG [U8C C27U C34G A69C], no more than 0.5.
As for GUUCCGUUGGCGUAAUGGAAACGCGUCUCCUUCCUAAGGAGAAGACUGCGGGUUCGAGUCCCGUACGGAACG [U19A C31U], the figure is 0.954; as for GUUCCGUUGGAGUAAUGGUAACGCGUCUCCCUCCUAAGGAGAGGAGUGCGGGUUCGAGUCCCGUUCGGAACG [C11A A43G C46G A65U], no more than 0.5; as for GUUCCGUUGGCGUAAUGGUAACGCGUCUCCCUCCGAGGGAGAAGACUGCGGGUUCGAGUCCCGUACGGAACG [U35G A37G], no more than 0.5.
For the variant GUCCCGUUGGCGUAAUGGUAACGCGUCUCCCUCCUAAGGAGAAGACUGCGGGUUCGAGACGCGUACGGAACG [U3C U59A C61G], the yeast fitness turned out to be 0.587.
With GUCCCGUUGGCGUAAUGGUAACGCGUCUCCCUCCUAAGGAGAAGACUCCGGGUUCGAGUCCCGUAUGGAACG [U3C G48C C66U], the yeast fitness was 0.761.
For GUUCCGUUGGUAUACUGGUAACGCGUUUCCCUCCUAAGGAGAAGACUGCGGGUUCGAGUCCCGUACGGUACG [C11U G12A A15C C27U A69U] the value was no more than 0.5.
